± gives the standard deviation of the averaged measurements. Most entries show no effect beyond the scatter of the controls.

Holding throughout (assay): level (log10 ratio to DMSO vehicle control); higher = higher biomarker level / cell amount than vehicle control
Compound in assay [1]: C=CC(=O)OCC(F)(F)C(F)(F)C(F)(F)COC(=O)C=C [1H,1H,5H,5H-Perfluoro-1,5-pentanediol diacrylate]
The note with it: 2200 nM; in DMSO. As to the method: (§1)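 BioMAP Diversity Plus panel of 12 human primary cell co-culture systems (3C, 4H, LPS, SAg, BT, BF4T, BE3C, CASM3C, HDF3CGF, KF3CT, MyoF, Mphg). Compounds were added 1 h before stimulation and left for 24 h (MyoF 48 h; BT 72 h for soluble read-outs or 6 d for IgG). Biomarkers were read by ELISA, cytotoxicity by SRB, PBMC viability and proliferation by Alamar Blue. Each well value was divided by the mean of 8 DMSO control wells on the same plate and log10 transformed; duplicate blinded samples were tested at 4 concentrations.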

Compound in assay [2]: C=CC(=O)OCCC(F)(F)C(F)(F)C(F)(F)C(F)(F)C(F)(F)C(F)(F)C(F)(F)C(F)(F)F [8:2 Fluorotelomer acrylate]
The following applies: 2200 nM; in DMSO. The method, then:
as §1

Compound in assay [3]: C=CC(=O)OCCC(F)(F)C(F)(F)C(F)(F)C(F)(F)F [2-(Perfluorobutyl)ethyl acrylate]
The note with it: 2200 nM; in DMSO. The method, then:
as §1

Compound in assay [4]: FC(F)(F)C(F)(C(F)(F)F)C(F)(F)C(F)(F)CC1CO1 [3-(Perfluoro-3-methylbutyl)-1,2-propenoxide]
The note with it: in DMSO. The method, then:
as §1

Compound in assay [5]: FC(F)(F)C(F)(F)C(F)(F)C(F)(F)C(F)(F)C(F)(F)I [Perfluoro-1-iodohexane]
The following applies: in DMSO. The method, then: as §1

Compound in assay [6]: FC(F)(I)C(F)(F)C(F)(F)C(F)(F)C(F)(F)C(F)(F)I [1,6-Diiodoperfluorohexane]
The following applies: 2200 nM; in DMSO. As to the method: as §1

Compound in assay [7]: O=C(Cl)C(F)(F)C(F)(F)C(F)(F)C(=O)Cl [Hexafluoroglutaryl chloride]
The following applies: 2200 nM; in DMSO. The method, then:
as §1

Compound in assay [8]: O=C(O)C(F)(F)C(F)(F)C(F)(F)C(F)(F)C(F)(F)C(F)(F)C(F)(F)C(F)(F)C(F)(F)C(F)(F)C(F)(F)C(F)(F)C(F)(F)F [Perfluorotetradecanoic acid]
The following applies: in DMSO. As to the method: as §1

Compound in assay [9]: O=C(O)C=C(C(F)(F)F)C(F)(F)F [3,3-Bis(trifluoromethyl)-2-propenoic acid]
The note with it: in DMSO. As to the method: as §1

Compound in assay [10]: O=S(=O)(O)C(F)(F)C(F)(F)C(F)(F)C(F)(F)C(F)(F)C(F)(F)F [Perfluorohexanesulfonic acid]
The note with it: 2200 nM; in DMSO. The method, then:
as §1

Compound in assay [11]: O=S(=O)(O)CCC(F)(F)C(F)(F)C(F)(F)C(F)(F)F [4:2 Fluorotelomer sulfonic acid]
The following applies: 2200 nM; in DMSO. As to the method: as §1

Compound in assay [12]: OCC(F)(F)C(F)(F)C(F)(F)CO [Hexafluoroamylene glycol]
The following applies: 2200 nM; in DMSO. The method, then: as §1

Compound in assay [13]: OCCCC(F)(F)C(F)(F)C(F)(F)C(F)(F)C(F)(F)C(F)(F)C(F)(F)F [7:3 Fluorotelomer alcohol]
The following applies: 2200 nM; in DMSO. The method, then: as §1

Take BT:sIL-6: the “level (log10)” value was -0.223 ± 0.088 in [1]; 0.0775 ± 0.0035 in assay [2]; -0.042 ± 0.013 in assay [3]; -0.0025 ± 0.016 in assay [4] (740 nM); 0.0185 ± 0.013 in assay [4] (2200 nM); 0.0455 ± 0.012 in [5] (2200 nM). The “level (log10)” value in [5] (6700 nM) was 0.0615 ± 0.0035; in assay [5] (20000 nM), 0.028 ± 0.057; in assay [5] (60000 nM), 0.039 ± 0.045; in assay [6], -0.0075 ± 0.083; in [7], 0.008 ± 0.0099; in assay [8] (740 nM) it was -0.016 ± 0.018. For the same test system, the “level (log10)” value in assay [8] (2200 nM) is 0.257 ± 0.44; in assay [9] (2200 nM) it was 0.064 ± 0.041; in assay [9] (6700 nM) it was 0.035 ± 0.037; in assay [9] (20000 nM), -0.0575 ± 0.026; in assay [9] (60000 nM) it was -0.182 ± 0.018; in assay [10], 0.0285 ± 0.029. Also, the “level (log10)” value in assay [11] is 0.001 ± 0.025; in assay [12] it was -0.004 ± 0.0014; in [13], 0.012 ± 0.0071.

On to SAg:CXCL9/MIG, for which the “level (log10)” value in [1] is -0.009 ± 0.02; in assay [2] it was -0.0035 ± 0.023; in [3], -0.012 ± 0.017; in assay [4] (740 nM), -0.002; in assay [4] (2200 nM), 0.005 ± 0.0057; in assay [5] (2200 nM), 0.005 ± 0.0028. The “level (log10)” value is -0.0205 ± 0.028 in assay [5] (6700 nM); -0.005 ± 0.014 in [5] (20000 nM); 0.0045 ± 0.032 in assay [5] (60000 nM); -0.002 ± 0.0014 in [6]; 0.0045 ± 0.0035 in [7]; 0.0015 ± 0.005 in assay [8] (740 nM). Moreover, the “level (log10)” value in assay [8] (2200 nM) is -0.003 ± 0.017; in [9] (2200 nM) it was -0.0025 ± 0.013; in assay [9] (6700 nM), -0.0065 ± 0.012; in [9] (20000 nM) it was -0.017 ± 0.0099; in assay [9] (60000 nM), 0.006 ± 0.0071; in assay [10], 0.0035 ± 0.03. The “level (log10)” value in [11] is 0.0055 ± 0.0035; in assay [12], 0.0075 ± 0.0035; in assay [13] it was -0.001 ± 0.016.

Consider CASM3C:SRB, for which the “level (log10)” value in assay [1] was 0.0045 ± 0.011; in assay [2], 0.014 ± 0.0099; in [3], 0.0045 ± 0.016; in assay [4] (740 nM), 0.001 ± 0.0085; in assay [4] (2200 nM), -0.007 ± 0.0085; in assay [5] (2200 nM) it was 0.008 ± 0.0014. Moreover, the “level (log10)” value in [5] (6700 nM) is 0.0035 ± 0.013; in [5] (20000 nM) it was 0.0015 ± 0.0021; in [5] (60000 nM) it was -0.0015 ± 0.016; in assay [6], 0.0095 ± 0.00071; in assay [7], 0.0075 ± 0.00071; in assay [8] (740 nM), 0.008 ± 0.013. For the same test system, the “level (log10)” value in [8] (2200 nM) is -0.0035 ± 0.0092; in assay [9] (2200 nM) it was -0.0015 ± 0.018; in assay [9] (6700 nM), 0.0145 ± 0.016; in assay [9] (20000 nM), -0.0075 ± 0.0021; in assay [9] (60000 nM) it was -0.027; in [10], -0.0045 ± 0.0064. In addition, the “level (log10)” value is 0.0045 ± 0.005 in assay [11], -0.001 ± 0.0071 in assay [12] and 0.0085 ± 0.0078 in [13].

As for MyoF:CD106/VCAM-1, the “level (log10)” value in assay [1] is -0.0745 ± 0.00071; in assay [2], -0.023 ± 0.0071; in assay [3] it was -0.034 ± 0.018; in [4] (740 nM) it was -0.0125 ± 0.0092; in assay [4] (2200 nM), -0.012; in assay [5] (2200 nM), -0.01 ± 0.023. Besides, the “level (log10)” value in assay [5] (6700 nM) is -0.031 ± 0.016; in assay [5] (20000 nM), -0.102 ± 0.064; in [5] (60000 nM), -0.337 ± 0.03; in [6] it was -0.101 ± 0.015; in [7], -0.0055 ± 0.033; in [8] (740 nM), -0.0115 ± 0.00071. In addition, the “level (log10)” value was 0.0095 ± 0.00071 in assay [8] (2200 nM); -0.0545 ± 0.011 in [9] (2200 nM); -0.0825 ± 0.00071 in assay [9] (6700 nM); -0.145 ± 0.0021 in [9] (20000 nM); -0.291 ± 0.04 in assay [9] (60000 nM); -0.0105 ± 0.022 in assay [10]. For the same test system, the “level (log10)” value is -0.016 in assay [11], -0.0105 ± 0.015 in assay [12] and -0.0125 ± 0.016 in assay [13].

For the test system SAg:CD62E/E-Selectin, the “level (log10)” value in assay [1] is -0.0725 ± 0.036; in [2], 0.0055 ± 0.016; in assay [3] it was 0.0045 ± 0.019; in assay [4] (740 nM), -0.011 ± 0.0057; in [4] (2200 nM), -0.0025 ± 0.013; in [5] (2200 nM), 0.0075 ± 0.026. In addition, the “level (log10)” value is -0.009 ± 0.0014 in [5] (6700 nM); 0.0055 ± 0.019 in assay [5] (20000 nM); 0.0095 ± 0.044 in assay [5] (60000 nM); 0.0015 ± 0.013 in assay [6]; -0.004 ± 0.038 in assay [7]; 0.0145 ± 0.0035 in assay [8] (740 nM). Further, the “level (log10)” value in [8] (2200 nM) was 0.0025 ± 0.0078; in assay [9] (2200 nM), -0.0665 ± 0.019; in assay [9] (6700 nM) it was -0.096 ± 0.0071; in assay [9] (20000 nM), -0.192 ± 0.032; in assay [9] (60000 nM) it was -0.459 ± 0.11; in [10], -0.015 ± 0.0042. The “level (log10)” value is -0.001 ± 0.0099 in assay [11], -0.003 ± 0.027 in assay [12] and 0.0235 ± 0.03 in assay [13].

For BF4T:CCL26/Eotaxin-3, the “level (log10)” value is 0.0135 ± 0.071 in assay [1]; 0.0195 ± 0.042 in assay [2]; 0.0225 ± 0.036 in [3]; 0.0155 ± 0.077 in assay [4] (740 nM); -0.004 ± 0.042 in assay [4] (2200 nM); 0.022 ± 0.011 in assay [5] (2200 nM). Moreover, the “level (log10)” value in [5] (6700 nM) was 0.0255 ± 0.0035; in assay [5] (20000 nM), 0.0135 ± 0.015; in assay [5] (60000 nM) it was -0.0145 ± 0.059; in [6] it was -0.015; in assay [7], 0.0075 ± 0.022; in [8] (740 nM), 0.022 ± 0.069. For the same test system, the “level (log10)” value in assay [8] (2200 nM) was -0.044 ± 0.044; in assay [9] (2200 nM), -0.0435 ± 0.059; in assay [9] (6700 nM), -0.089 ± 0.03; in assay [9] (20000 nM), -0.124 ± 0.0014; in assay [9] (60000 nM) it was -0.126 ± 0.067; in assay [10], 0.0305 ± 0.037. Moreover, the “level (log10)” value in assay [11] stood at 0.0005 ± 0.096; in [12], 0.0515 ± 0.09; in assay [13], 0.037 ± 0.0057.

(Values after the supplement of paper PMC10331698.)
